# Values from PubChem BioAssay AID504764 (Drosophila RNAi Screening Center, 2011)
# Assay: 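Genome-wide screen for regulators of Notch-driven gene expression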 (primary screen)
# Cell system: Drosophila Kc167 cells
# Reagents: long dsRNA against Drosophila genes
# Timing: about 5 days (4 days dsRNA, then 24 h after transfection)
# Conditions: transfection of constitutively active membrane-tethered Notch lacking the extracellular domain, read 24 h later
# Read-out: 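Light from a Notch-responsive E(spl)m3 luciferase reporter under active Notch, with control-promoter and no-Notch reporter wells to normalise; raw counts from paired wells a and b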
# Reading the numbers: induced reporter light, run 1, well a and induced reporter light, run 1, well b: higher = more light from the Notch target reporter with active Notch; control promoter light, run 1, well a and control promoter light, run 1, well b: higher = more light from the viral control promoter (cell number, transfection, viability); uninduced reporter light, run 1, well a: higher = more light from the Notch target reporter without active Notch
# Rule for the call: 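Hit if the duplicate-averaged log2 ratio of induced to control-promoter light gives a plate-wise z beyond ±2, or induced to uninduced beyond ±1.8; weak-control or discordant-duplicate wells dropped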
# Meaning of the calls: active = modifier hit (raised or lowered Notch signal); inactive = not a hit
# In all, the deposit lists about 22,000 reagents; shown is an unselected part of those with a known target gene and a result. Of all reagents, 403 (1.9%) are marked active. 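Unnormalised raw counts per well; ratio z-scores behind the hit calls and whether each hit raises or lowers signal are not deposited.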 The numbers tell different reagents against one gene apart. A plus sign joins genes that one reagent is predicted to hit. No sequences are given here. The record does not give: the amount of reagent.
target,dsRNA no.,"induced reporter light, run 1, well a","induced reporter light, run 1, well b","control promoter light, run 1, well a","control promoter light, run 1, well b","uninduced reporter light, run 1, well a",call
eIF4H1 (eukaryotic translation initiation factor 4H1),1,22505,25500,29775,25720,3365,inactive
endos (endosulfine),1,1.46e5,1.37e5,1.07e5,1.20e5,11245,inactive
Klp3A (Kinesin-like protein at 3A),1,1.65e5,1.91e5,2.25e5,2.49e5,13800,inactive
CG17193,1,1.99e5,1.76e5,2.07e5,2.05e5,14228,inactive
hang (hangover),1,28690,32765,14155,17885,4965,inactive
hang (hangover),2,6375,7860,6535,6085,4615,inactive
Manf (Mesencephalic astrocyte-derived neurotrophic factor),1,2.39e5,2.94e5,3.40e5,3.28e5,19385,inactive
Ace (Acetylcholine esterase),1,1.33e5,1.19e5,1.19e5,1.16e5,9825,inactive
Ace (Acetylcholine esterase),2,1.50e5,1.39e5,85195,72525,8425,inactive
GstE2 (Glutathione S transferase E2),1,41265,44260,47940,55345,4700,inactive
miple1 (midkine and pleiotrophin 1),1,2.00e5,1.76e5,2.29e5,2.52e5,10525,inactive
GstZ1 (Glutathione S transferase Z1),1,1.16e5,1.62e5,77235,66835,7920,inactive
CG14230,1,1.67e5,1.33e5,1.03e5,86695,12165,inactive
CG16790,1,66565,57000,56845,46495,3375,inactive
Ugt36A1 + CG15418,1,1.64e5,1.69e5,1.98e5,1.76e5,11185,inactive
CG34292,1,1.69e5,1.44e5,1.66e5,1.59e5,15035,inactive
Catsup (Catecholamines up),1,42720,36830,37765,46355,2365,inactive
hfp (half pint),1,82125,99790,1.42e5,1.73e5,4675,inactive
hfp (half pint),2,1.11e5,1.06e5,1.28e5,1.89e5,4800,inactive
CG7879,1,65220,67265,1.17e5,1.15e5,5980,inactive
nclb (no child left behind),1,1.42e5,1.04e5,1.51e5,1.54e5,10830,inactive
TTLL6A (Tubulin tyrosine ligase-like 6A),1,96190,75830,1.06e5,80165,6350,inactive
CG7829,1,1.19e5,1.11e5,1.55e5,1.56e5,9890,inactive
Esp (Epidermal stripes and patches),1,1.76e5,1.36e5,1.91e5,1.67e5,14960,inactive
CG16786,1,1.76e5,1.42e5,1.33e5,1.39e5,9328,active
Pal1 + Pdrg1,1,3.22e5,2.86e5,3.05e5,2.56e5,25575,active
Ge-1,1,1.87e5,1.46e5,1.07e5,1.22e5,11610,inactive
CG12992,1,62300,60300,72200,88405,8210,inactive
shi (shibire),1,1.12e5,1.02e5,1.68e5,1.87e5,7885,inactive
SKIP (Shal K[+] channel interacting protein),1,1.97e5,1.41e5,1.93e5,2.17e5,13860,inactive
SKIP (Shal K[+] channel interacting protein),2,1.66e5,1.63e5,2.05e5,1.86e5,10740,inactive
SKIP (Shal K[+] channel interacting protein),3,1.77e5,1.57e5,1.35e5,1.64e5,11132,inactive
SKIP (Shal K[+] channel interacting protein),4,88675,93030,1.20e5,1.16e5,7540,inactive
SKIP (Shal K[+] channel interacting protein),5,1.76e5,1.59e5,1.63e5,1.42e5,12405,inactive
Spf30 (Splicing factor 30),1,1.73e5,1.47e5,1.16e5,1.13e5,11505,inactive
CG31792,1,40455,43710,50005,40575,2070,inactive
PIG-U (Phosphatidylinositol glycan anchor biosynthesis class U),1,2.10e5,2.17e5,2.20e5,1.90e5,20515,inactive
Cyp4g1 (Cytochrome P450 4g1),1,65370,69370,85115,93395,5710,inactive
CG12546,1,86720,1.16e5,1.25e5,97320,5075,inactive
CG34404,1,1.80e5,1.83e5,1.62e5,1.75e5,16265,inactive
CG34404,2,1.66e5,1.41e5,1.31e5,1.39e5,12765,inactive
CG34236,1,1.84e5,1.74e5,1.99e5,2.12e5,17080,inactive
AANATL6 (Arylalkylamine N-acetyltransferase-like 6),1,32145,41925,37750,35095,3205,inactive
Sp1,1,75935,69545,91530,77095,6015,inactive
Sp1,2,1.62e5,1.30e5,3.09e5,2.81e5,9790,inactive
Desat2 (Desaturase 2),1,81840,76615,82305,56650,5885,inactive
rad50,1,2.21e5,2.53e5,1.81e5,1.97e5,16138,inactive
CG31659,1,1.08e5,1.42e5,1.09e5,74965,10210,inactive
CG31347,1,,,,,,inactive
CG8142,1,1.07e5,97045,88045,57880,7660,inactive
Blos1,1,1.09e5,1.06e5,1.38e5,1.34e5,9382,inactive
Bmcp,1,1.32e5,1.19e5,70580,32885,12200,inactive
PQBP1 (Poly-glutamine tract binding protein 1),1,1.39e5,1.47e5,1.75e5,1.90e5,12945,inactive
Arc2 (Activity-regulated cytoskeleton associated protein 2),1,79925,93840,1.15e5,79210,9600,inactive
Col4a1 (Collagen type IV alpha 1),1,1.73e5,1.75e5,1.82e5,1.73e5,19505,inactive
abo (abnormal oocyte),1,1.13e5,1.33e5,64425,79160,16532,inactive
Cep135 (Centrosomal protein 135kDa),1,1.51e5,1.75e5,2.16e5,1.90e5,15480,inactive
Cep135 (Centrosomal protein 135kDa),2,1.37e5,1.60e5,83420,77370,8542,inactive
CG8187,1,1.15e5,1.26e5,2.20e5,2.19e5,10170,inactive
lilli (lilliputian),1,2.75e5,2.41e5,2.25e5,2.31e5,20885,inactive
Rpt3R (Regulatory particle triple-A ATPase 3-related),1,50955,52510,61775,50920,3500,inactive
ATP7,1,1.22e5,1.17e5,2.24e5,1.57e5,8970,inactive
p (pink),1,77080,88475,75870,52255,7910,inactive
bun (bunched),1,1.39e5,94770,1.73e5,1.53e5,8460,inactive
bun (bunched),2,1.58e5,1.57e5,2.34e5,2.27e5,8620,inactive
bun (bunched),3,37900,37955,24705,29225,7655,inactive

A stretch from the list above, as a working copy:
target,dsRNA no.,"induced reporter light, run 1, well a","induced reporter light, run 1, well b","control promoter light, run 1, well a","control promoter light, run 1, well b","uninduced reporter light, run 1, well a",call
SKIP (Shal K[+] channel interacting protein),3,1.77e5,1.57e5,1.35e5,1.64e5,11132,inactive
SKIP (Shal K[+] channel interacting protein),4,88675,93030,1.20e5,1.16e5,7540,inactive
SKIP (Shal K[+] channel interacting protein),5,1.76e5,1.59e5,1.63e5,1.42e5,12405,inactive
Spf30 (Splicing factor 30),1,1.73e5,1.47e5,1.16e5,1.13e5,11505,inactive
CG31792,1,40455,43710,50005,40575,2070,inactive
